Laboratory results published in patent publication US20230028050A1.

Columns and labels:
GPRC5D-8 = experiment: flow cytometry; Jurkat T cells expressing the control CAR, anti-ID conjugated to Alexa Fluor 647
non-target anti-CD19 CAR = experiment: cartridge-based flow cytometry (Accellix), fluorophore-conjugated clone 16 on primary T cells expressing the anti-CD19 CAR

| binding (GPRC5D-8) | Binder | binding (non-target anti-CD19 CAR) |
| --- | --- | --- |
| no binding (tested: 2.5 µg/mL) | anti-idiotype antibody clone 15 (antibody, mouse IgG1, kappa, V domains shown) VH: QVQLQQSGAELVKPGASVKISCKASGYAFSSYWMNWVKQRPGKGLEWIGQIYPGNGETNNNGKFKGKATLTADISSSTAYMQLSSLTSEDSAVYFCARGGWYFDVWGTGTTVTVSS VL: DIQMTQSPASLSASVGETVTITCRASENIYSYLAWYQQKQGKSPHLLVYNAYTLAEGVPSRFSGSGSDTQFSLKINSLQPEDFGNYYCQHHYGTPWTFGGGTKVEIKR |  |
| no binding (tested: 2.5 µg/mL) | anti-idiotype antibody clone 16 (antibody, mouse IgG1, kappa, V domains shown) VH: QVQLQQSGPELVKPGASVKISCKASGYTFTDFYINWVKQRPGQGLEWIGWIFPRSGSTYYNEKFKGKATLSVDKSSITAYMLLSSLTSEDSAVYFCARGDGYSGAMDYWGQGTSVTVSS VL: DIQMTQTTSSLSASLGDRVTISCSASQGIRNYLNWYQQKPDGTVKLLIYYTSNLHSGVPSRFSGSGSGTDYSLTISNLEPEDIATYYCQQYNNLPRTFGGGTKLEIKR | no binding (tested: less than or equal to 1% CAR frequency) |

These are yes or no findings as the source states them, for the method shown.
